The target of this assay is T1, TGFβRI (human (endogenous in HNSCC cell lines)) (UniProt P36897).
T1 sequence: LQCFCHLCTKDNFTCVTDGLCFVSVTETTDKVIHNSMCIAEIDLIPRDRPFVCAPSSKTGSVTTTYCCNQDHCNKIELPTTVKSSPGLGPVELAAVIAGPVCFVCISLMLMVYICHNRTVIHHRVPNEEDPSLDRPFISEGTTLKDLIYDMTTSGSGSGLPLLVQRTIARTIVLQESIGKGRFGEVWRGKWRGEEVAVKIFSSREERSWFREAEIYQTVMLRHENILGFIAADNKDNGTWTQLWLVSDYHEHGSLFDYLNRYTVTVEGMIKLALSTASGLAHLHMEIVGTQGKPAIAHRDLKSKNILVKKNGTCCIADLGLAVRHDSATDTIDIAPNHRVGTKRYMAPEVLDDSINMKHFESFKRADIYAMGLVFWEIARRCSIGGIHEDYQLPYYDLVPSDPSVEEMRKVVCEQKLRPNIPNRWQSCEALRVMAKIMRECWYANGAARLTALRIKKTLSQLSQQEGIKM
Briefly: co-IP; HNSCC cells lysed in radioimmunoprecipitation assay buffer; supernatants incubated with primary antibodies or IgG control at 4°C overnight, then magnetic beads 8 h, western blotting; cells untreated or with TNS4 depletion (shTNS4/siTNS4), TNS4 overexpression or FAK inhibitor.

Sequences of proteins named here, by UniProt entry; tags and fusion partners are left off.
UniProt Q05397: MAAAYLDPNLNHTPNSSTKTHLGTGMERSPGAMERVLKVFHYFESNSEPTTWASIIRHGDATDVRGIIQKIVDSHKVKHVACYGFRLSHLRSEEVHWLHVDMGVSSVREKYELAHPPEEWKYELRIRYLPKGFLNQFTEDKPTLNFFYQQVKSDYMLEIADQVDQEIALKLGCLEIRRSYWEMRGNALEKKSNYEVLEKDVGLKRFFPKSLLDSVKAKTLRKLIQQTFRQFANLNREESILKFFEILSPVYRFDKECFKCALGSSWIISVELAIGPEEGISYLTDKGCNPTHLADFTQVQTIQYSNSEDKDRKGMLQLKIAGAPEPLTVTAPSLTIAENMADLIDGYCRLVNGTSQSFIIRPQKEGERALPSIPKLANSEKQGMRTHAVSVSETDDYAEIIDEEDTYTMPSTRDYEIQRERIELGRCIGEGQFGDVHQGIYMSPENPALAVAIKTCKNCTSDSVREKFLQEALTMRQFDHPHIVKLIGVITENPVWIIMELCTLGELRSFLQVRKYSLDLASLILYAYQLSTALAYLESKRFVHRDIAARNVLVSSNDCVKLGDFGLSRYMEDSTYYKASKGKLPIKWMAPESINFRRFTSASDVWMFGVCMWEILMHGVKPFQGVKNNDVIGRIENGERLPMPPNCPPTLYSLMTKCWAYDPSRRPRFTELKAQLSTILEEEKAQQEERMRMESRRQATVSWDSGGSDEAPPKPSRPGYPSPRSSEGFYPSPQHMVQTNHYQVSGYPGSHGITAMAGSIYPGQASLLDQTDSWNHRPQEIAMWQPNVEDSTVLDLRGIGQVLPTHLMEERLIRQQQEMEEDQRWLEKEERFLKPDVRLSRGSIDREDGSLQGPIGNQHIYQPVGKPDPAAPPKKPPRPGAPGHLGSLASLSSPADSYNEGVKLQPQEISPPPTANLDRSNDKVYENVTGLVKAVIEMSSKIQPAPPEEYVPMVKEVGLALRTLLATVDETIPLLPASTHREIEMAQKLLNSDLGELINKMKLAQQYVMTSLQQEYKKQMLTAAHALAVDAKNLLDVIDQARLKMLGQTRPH

These are yes or no findings as the source states them, for the method shown. In cells and extracts the contact can be indirect. Some binding calls cover weakened binding; strength is not graded here.

This note sets out measurements from article PMC10750279.

Regarding “focal adhesion kinase (FAK) (from UniProt Q05397 1-1052) (enzyme)”, the binding entry was “binds”.
